The values below come from US20210238281A1.

Chains of the proteins cited; added tags and fusions are not shown. Residues count along the entry.
UniProt Q16653, residues 30-154: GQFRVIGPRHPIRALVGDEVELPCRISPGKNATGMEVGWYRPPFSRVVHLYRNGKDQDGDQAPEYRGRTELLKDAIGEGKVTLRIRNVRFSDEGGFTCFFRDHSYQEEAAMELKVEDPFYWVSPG
UniProt Q61885, residues 29-156: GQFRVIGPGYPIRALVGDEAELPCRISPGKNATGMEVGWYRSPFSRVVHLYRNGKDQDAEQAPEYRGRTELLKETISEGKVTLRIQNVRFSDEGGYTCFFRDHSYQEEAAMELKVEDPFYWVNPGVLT

The target of test [1] is recombinant human MOG protein (human) (UniProt Q16653). Kind of test: phage-scFv ELISA, compared with phage-scFv-8-18C5 positive control. In general terms: ELISA stands for enzyme-linked immunosorbent assay.
Test [2] concerns the target recombinant murine MOG protein (murine) (UniProt Q61885). The test is described as above.

Changes are numbered by the printed parent chain. Results are given in words; binding and its absence hold for the method and conditions named. Some binding calls cover weakened binding; strength is not graded here.

B1: anti-MOG MO3J-72 antibody (scFv, V domains shown)
VH: EVQLVESGGGSVKPGGSLRLSCAASGFRFDDYAMHWVRQAPGKGLEWVSGISWNSGAIGYADSVQGRFTISGDNAKNTLYLQMNGLRVEDTAMYYCARDGHGDYPIDYWGQGTLVTVSS
VL: QSVLTQPPSVSGAPGQRVSISCTGSGSNIGAGFDVHWYQQVPGTTPKLLIYGNNNRPSGVPDRFSGSTSATSASLAITGLQADDEADYYCQSYDRSLRYVFGTGTKLTVL
For B1, the binding entry in test [1] is “binds”.

B2: anti-MOG MO3I-56 antibody (scFv, V domains shown)
VH: QVQLVESGGGVVQPGSSLRLSCTASGFKFDDYAMHWVRQAPGKGLEWVSGISWNSGSIGYADSVKGRFTISRDNAKNSLYLQMNSLRAEDTASYYCAKSLPHYYDSPPYGMDVWGQGTLVTVSS
VL: DIQLTQSPSSLSASVGDRVTITCRASQGISSALAWYQQKPGKAPKLLIYDASSLESGVPSRFSGSGSGTDFTLTISSLQPEDFATYYCQHRGTFGGGTKVDIK
As to B2, the binding entry in test [1] and in test [2] was “binds” each time.

B3: anti-MOG MO3B-03 antibody (scFv, V domains shown)
VH: QVQLQQSGPGLVRPSQTLSLTCAISGDSVSSSSAAWNWVRSPSRGLEWLGRTYYRSKWYYDYAVSVKNRIAINPDTSKNQFSLHLNSVTPEDTAVYYCATGWLRGHLDYWGQGTLVTVSS
VL: AIQMTQSPSSVSASVGDRVTITCRATQSISTYLNWYQQKVGRGPKLLVYAASRLQTGVPSRFSGSGSGTDFTLTISSLQPEDSATYYCQQSYSAPPAFGGGTKVEIK
In the case of B3, the binding entry in test [1] and in test [2] was “binds” each time.

B4: anti-MOG MO3J-12 antibody (scFv, V domains shown)
VH: EVQLLESGGGLVQPGGSLRLSCAASGFTFSTYWMHWVRQAPGRGLVWVSRINTDGSSTDYADSVKGRFTISRDNAKNTLYLQMNSLRAEDTAVYSCARGGQLVAAANDNWLDPWGQGTLVTVSS
VL: AIQLTQSPSSLSASAGDRVTITCRASQSINNYLNWYQQKPGKAPKVLIYGASNLQSGVPSRFSGSGSGTDFTLTISSLQPEDFATYYCQQSYSTPRTFGQGTKVEIK
On to B4, for which the binding entry in test [1] and in test [2] was “binds” throughout.

B5: anti-MOG MO3J-37 antibody (scFv, V domains shown)
VH: EVQLVESGGGLVQPGRSLRLSCAASGFTFDDYAMHWVRQAPGKGLEWVSGISWNSGSIGYADSVKGRFTISRDNAKNSLYLQMNSLRAEDTALYYCAKDMRAVAGTEGAFDIWGQGTMVTVSS
VL: QSVVTQPPSMSAAPGQKVTISCSGSSSNIGNNYVSWYQQLPGTAPKLLIYENNKRPSGISDRFSGSKSGTSATLGITGLQTGDEADYYCATGDSGMTLVFGGGTKLTVL
For the molecule B5, the binding entry in test [1] and in test [2] was “binds” throughout.

B6: anti-MOG MO3J-43 antibody (scFv, V domains shown)
VH: EVQLVESGGGLVKPGGSLRLSCAASGFTFSDYYMSWIRQAPGKGLEWVSYISSSGNTIYYADSVKGRFTISRDNAKNSLYLQMNSLRAEDTAVYYCAKDSPVPTVWGQGTLVTVSS
VL: QSVVTQPPSVSGAPGQRVSISCTGGSSNIGADYDVHWYQQLPGTAPKLLIYGNNNRPSGVPDRFSGSKSGTSASLAISGLQPEDEAVYYCQSYDSGLRSSVFGGGTKLTVL
Take B6: the binding result in test [1] and in test [2] was “binds” throughout.

B7: anti-MOG MO4H-55 antibody (scFv, V domains shown)
VH: QVQLQQSGPGLVKPSQTLSLTCAISGDSVSSNSAAWNWIRQSPSRGLEWLGRTYYRSKWYNDYAESVKSRMTVTSDTSKNQVSLHLNSVTPEDTAVYYCAREHIAVPGVFDIWGQGTLVTVSS
VL: DVVMTQPPSASGTPGQGVTISCSGSSSNIGSNTVNWYQQLPGTAPKLLIYGSGQRPSGVPDRFSGSRSGTSASLAISGLQSEDEADYYCAAWDDSLNGRVFGQGTKVDIT
For the molecule B7, the binding result in test [1] is reported as “binds”.

B8: anti-MOG MO3J-26 antibody (scFv, V domains shown)
VH: QVQLVQSGAEVKKPGSSVKVSCKASGGTFSTYTLSWVRQAPGKGLEWMGGFDPEDGETIYAQKFQGRVTMTEDTSTDTAYLELSSLRSDDTAVYYCAADEFWGPGTLVTVSS
VL: QSVLTQPPSVSAAPGQTVTISCSGSSSNIGNNYVSWYQQLPGTAPKLLIYDNNKRPSGIPDRFSGSKSGTSATLGITGLQTGDEADYYCGTWDSSLSAVVFGGGTKLTVL
For B8, the binding entry in test [1] and in test [2] was “binds” each time.

B9: anti-MOG MO3J-23 antibody (scFv, V domains shown)
VH: DQVQLVQSGAEVKPGASVKVSCKASGYTFTSYGISWVRQAPGQGLEWMGWISAYNGNTNYAQKLQGRVTMTTDTSTSTAYMELRSLRSDDTAVYYCARDPVGSLRPYYMDVWGEGTTVTVSS
VL: DIVMTQSPSTLSASVGDRVTITCRASQSISTWLAWYQQKPGKAPKLLIYAASSLQSGVPSRFSGSGSGTDFTLTISSLQPEDFATYYCQQSYSTPRTFGQGTKVEIK
For B9, the binding entry in test [1] and in test [2] was “binds” each time.

B10: anti-MOG MO3J-44 antibody (scFv, V domains shown)
VH: QVQLVQSGAEVRKPGASVKISCQISGYNFISYTIQWVRQAPGQRPEWMGWINSGNGNTKYSQKFQGRVTFTRDTSTSTAYMELSSLRSEDTAVYYCARSGIGPWGQGTLVTVSS
VL: EIVLTQPPDLQSVTPKKKVTITCRASQSIGNSLHWCQQKPDQSPKLLIKYASQSISGVPSRFSGSGSGTDFTLTINSLEAEDAATYYCHQSSSLPFTFGPGTKVDIK
For the molecule B10, the binding entry in test [1] and in test [2] was “binds” each time.

B11: anti-MOG MO4B-43 antibody (scFv, V domains shown)
VH: DEVQLLESGGGLVPGGSLRLSCEVSGFSFSNHAMHWVRQAPGKALEHLSVLGSDGRSTYYADSVKGRFTISRDISKTTVYLQMGSLRPGDMGVYYCARGLYGDHWDASDLWGQGTMVTVSS
VL: EIVMTQSPATLSVSPAERVILSCRASQSVGNNVAWFQQKPGQAPRLLIHGASSRATGIPTRFSGSGSGTELTLTISSLQSEDFAVYYCQQYGSAPITFGQGTRLEIK
With B11, the binding result in test [1] and in test [2] was “binds” in each case.

B12: anti-MOG MO3J-19 antibody (scFv, V domains shown)
VH: EVQLVQSGAEVKKPGASVKVSCKASGYTFTSYGISWVRQAPGQGLEWMGWISAYNGNTNYAQKLQGRVTMTTDTSTSTAYMELRSLRSDDTAVYYCARNMGCSSTSCFVSWFDPWGQGTLVTVSS
VL: QSVLTQPPSASGTPGQRVTISCSGSTSNIGSQIVNWYQQLPGTAPRLIIYNDNERPSGVSDRFSGSKSDTSASLAISGLQSEDEADYYCAAWDDSLNGYVFGTGTKVTVL
B12: the binding result in test [1] and in test [2] was “binds” each time.

B13: anti-MOG MO3J-51 antibody (scFv, V domains shown)
VH: B12 VH with R87G
VL: B8 VL with Q16R, T17K, S35A, D51E, D61G, G69A, S94N, V99W
As to B13, the binding entry in test [1] and in test [2] was “binds” throughout.

B14: anti-MOG MO3F-02 antibody (scFv, V domains shown)
VH: QVQLQQSGPGLVKPSQTLSLTCAISGDSVSSNSAAWNWIRKSPSRGLEWLGRTYYRSKWYNDYAVSVKSRITINPDTSKNQFSLQLSSVTPEDTAVYYCARASAGTFGYWGQGTLVTVSS
VL: DIVMTQSPSSLSASVGDRVTMTCRASQTINTYLNWYQQKPGKAPKLLIYAASTLQSGVPSRFSGSGSGTDFSLTISSLQPEDFATYYCQHGYNNPPFTFGPGTKVDIK
As to B14, the binding entry in test [1] and in test [2] was “binds” in each case.
